Measured values as given in PubChem BioAssay AID2685 (National Center for Advancing Translational Sciences (NCATS), 2010).
Several values for one entry are separate records, joined by “and”; a condition that tells them apart may be missing. Identical values can stand only once. This is one part of the list. Further columns of the screen follow, without active or inactive calls. Compounds called inactive in the main read-out are mostly missing here. Words in brackets tell the shape of the fitted curve; partial curves, single points and poor fits give uncertain potencies.

Test: qHTS Assay for Lipid Storage Modulators in Drosophila S3 Cells;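 as to cell number change: cells counted by Cell Tracker Red CMTPX staining in the red channel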
Details: BODIPY lipid droplet fluorescence, 18-24 h; for cell number change: measured here: cell count max response, cells fed with added oleic acid
In short: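 Laser-scanning cytometry quantifies lipid droplet accumulation (500–530 nm total intensity; droplet/cell object ratio) in oleic acid-fed (400 uM added) Drosophila S3 cells treated with a concentration series. 20 uM Triacsin C defined 100% inhibition.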

[1] = measured here: cell number channel AC50, cells fed with added oleic acid
[2] = measured here: lipid fluorescence (Fed channel) AC50, cells fed with added oleic acid

SMILES | cell number change | AC50 [1] | AC50 [2]
COC(=O)[C@]1(CC(C)C)N[C@H](c2ccc(SC3CCCCC3)c(OC)c2)[C@@H]2C(=O)N(C)C(=O)[C@@H]21 | 16.8% | 231 nM [falling, full curve, poor fit] | 259 nM [falling, partial curve, poor fit]
CC(=O)Nc1ccc(OCCOc2ccccc2C(C)=O)cc1 |  |  | 206 nM [rising, single point]
c1ccc2c(c1)[nH]c1c3ccccc3sc21 | 8.45% | 820 nM [falling, single point] | 146 nM [falling, full curve]
Cc1ccc2cccnc2c1N | 2.28% |  | 
COC(=O)CSc1nnc(-c2sc3ccccc3c2Cl)o1 | -15.3% | 5.17 nM [falling, full curve, poor fit] | 
CCOC(=O)c1cnc2c(C(F)(F)F)cccc2c1N1CCOCC1 | 1.98% |  | 
O=C(CCN1C(=O)c2ccccc2C1=O)N1CCN(c2ccccn2)CC1 | 13.4% | 206 nM [rising, full curve, poor fit] | 
Cc1nn(-c2ccccc2)c(Cl)c1/C=C/C(=O)c1ccc(O)cc1 | -43.6% | 16400 nM [falling, partial curve, poor fit] | 14600 nM [falling, single point]
Cc1c(CCC(=O)N2CCC(C(=O)O)(c3ccccc3)CC2)c(=O)oc2cc3oc4c(c3cc12)CCCC4 | 8.09% |  | 29100 nM [rising, single point]
Cc1cccc(-n2ncc3c(NCCc4ccc(S(N)(=O)=O)cc4)ncnc32)c1 | -22.4% |  | 16400 nM [falling, partial curve]
NC(=O)N1c2ccccc2C=Cc2ccccc21 | -38.2% and 33.2% | 580 nM [falling, full curve] and 32.6 µM [rising, single point] | 1.16 µM [falling, single point] and 103 nM [rising, full curve, poor fit]
Cc1cccc(C(=O)N(CC(=O)Nc2sc(C)c(C)c2C(N)=O)C2CCCC2)c1 | 14.8% | 3660 nM [rising, partial curve, poor fit] | 29100 nM [falling, single point]
CCCCOC(=O)c1ccc(NC(=O)C2CCCO2)cc1 (configuration not stated) | 7.96% |  | 2590 nM [rising, full curve]
O=C(NCCCN1CCOCC1)C(=O)NCc1ccccc1Cl | -23.7% |  | 29100 nM [falling, single point]
O=C1c2ccccc2NC(c2cccc(O)c2)N1c1ccccc1 (configuration not stated) | 0.945% |  | 29.1 nM [rising, full curve, poor fit]
